These are yes or no findings as the source states them, for the method shown. Binding seen in cells or lysates may run through a third protein. Some binding calls cover weakened binding; strength is not graded here.

Chains of the proteins cited; added tags and fusions are not shown. Residues count along the entry.
UniProt P02545, residues 1-646: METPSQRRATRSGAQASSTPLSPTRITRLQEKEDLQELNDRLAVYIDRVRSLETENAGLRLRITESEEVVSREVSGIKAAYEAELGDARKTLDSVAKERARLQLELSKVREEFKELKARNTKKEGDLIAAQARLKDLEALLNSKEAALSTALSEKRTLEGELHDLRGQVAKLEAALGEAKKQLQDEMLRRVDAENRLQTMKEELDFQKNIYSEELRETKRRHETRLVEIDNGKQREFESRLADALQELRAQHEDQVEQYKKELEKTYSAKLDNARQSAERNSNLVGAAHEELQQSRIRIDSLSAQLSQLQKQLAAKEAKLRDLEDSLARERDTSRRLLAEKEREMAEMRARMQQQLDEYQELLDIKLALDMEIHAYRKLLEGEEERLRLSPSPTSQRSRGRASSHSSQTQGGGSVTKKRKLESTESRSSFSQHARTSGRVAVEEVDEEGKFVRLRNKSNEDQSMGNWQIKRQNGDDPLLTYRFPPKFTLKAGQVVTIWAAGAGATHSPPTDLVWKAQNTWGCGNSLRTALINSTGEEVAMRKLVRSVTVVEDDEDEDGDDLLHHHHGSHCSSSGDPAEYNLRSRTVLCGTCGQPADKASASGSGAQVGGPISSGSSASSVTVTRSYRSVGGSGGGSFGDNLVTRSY
UniProt Q9UBN7: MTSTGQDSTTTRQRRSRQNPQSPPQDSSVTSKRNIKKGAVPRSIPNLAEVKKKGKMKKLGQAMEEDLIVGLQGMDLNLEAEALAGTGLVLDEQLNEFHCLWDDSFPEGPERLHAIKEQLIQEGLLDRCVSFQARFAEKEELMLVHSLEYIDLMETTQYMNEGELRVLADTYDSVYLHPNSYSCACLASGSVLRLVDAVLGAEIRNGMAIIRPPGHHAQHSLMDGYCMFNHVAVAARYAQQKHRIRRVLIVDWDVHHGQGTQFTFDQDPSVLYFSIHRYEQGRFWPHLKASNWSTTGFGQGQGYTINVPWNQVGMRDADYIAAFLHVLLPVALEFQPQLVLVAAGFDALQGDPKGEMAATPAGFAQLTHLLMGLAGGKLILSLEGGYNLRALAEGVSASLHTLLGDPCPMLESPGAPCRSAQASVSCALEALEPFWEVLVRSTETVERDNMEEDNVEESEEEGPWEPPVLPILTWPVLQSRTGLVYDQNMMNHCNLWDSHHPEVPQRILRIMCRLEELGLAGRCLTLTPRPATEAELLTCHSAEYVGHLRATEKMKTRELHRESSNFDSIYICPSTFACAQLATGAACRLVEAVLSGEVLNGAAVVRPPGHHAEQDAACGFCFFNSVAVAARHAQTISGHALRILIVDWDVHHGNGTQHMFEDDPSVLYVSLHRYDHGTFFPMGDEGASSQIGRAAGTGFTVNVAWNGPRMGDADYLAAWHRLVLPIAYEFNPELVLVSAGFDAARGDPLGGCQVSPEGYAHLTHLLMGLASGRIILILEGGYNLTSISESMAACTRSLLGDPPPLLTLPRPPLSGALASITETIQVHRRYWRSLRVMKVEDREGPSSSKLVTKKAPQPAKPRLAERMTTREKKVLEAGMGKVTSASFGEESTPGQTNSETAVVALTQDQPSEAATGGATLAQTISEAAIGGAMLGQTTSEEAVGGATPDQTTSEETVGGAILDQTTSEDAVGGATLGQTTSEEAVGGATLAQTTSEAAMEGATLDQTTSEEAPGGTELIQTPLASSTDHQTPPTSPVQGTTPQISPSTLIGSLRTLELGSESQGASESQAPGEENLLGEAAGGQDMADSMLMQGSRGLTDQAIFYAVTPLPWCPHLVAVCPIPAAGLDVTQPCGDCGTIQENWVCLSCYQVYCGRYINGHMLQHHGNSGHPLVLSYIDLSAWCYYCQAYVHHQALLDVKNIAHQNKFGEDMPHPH

The results in this text go back to article PMC9385620.

For test [1], the target named is lamin A (human LMNA in pcDNA3.1-3xFlag), ectopically expressed in 293T cells (human) (UniProt P02545). The test is described as follows: co-IP; exogenous proteins expressed in 293 T cells; co-immunoprecipitation followed by Western blot.
In test [2] the target is endogenous lamin A in PLC/PRF/5 and sk-Hep1 cells (human (endogenous in PLC/PRF/5 and sk-Hep1)) (UniProt P02545). Nature of the test: co-IP; endogenous proteins in PLC/PRF/5 and sk-Hep1 cells; reciprocal co-immunoprecipitation followed by Western blot.
Test [3] has as its target endogenous HDAC6 in PLC/PRF/5 and sk-Hep1 cells (human (endogenous in PLC/PRF/5 and sk-Hep1)) (UniProt Q9UBN7). Described as above.

Turning to “HDAC6 (human HDAC6 in pcDNA3.1-6xHIS), ectopically expressed in 293T cells (from UniProt Q9UBN7 1-1215) (enzyme)”, the binding result in test [1] is “binds”.
For “endogenous HDAC6 in PLC/PRF/5 and sk-Hep1 cells (from UniProt Q9UBN7 1-1215) (enzyme)”, in test [2], the binding result is reported as “binds”.
“endogenous lamin A in PLC/PRF/5 and sk-Hep1 cells (from UniProt P02545 1-646)”: the binding result in test [3] is given as “binds”.
